# Results taken from the supplement of paper PMC8728848.
# The other results are listed elsewhere or left out.
# B1: FGF1 (Homo sapiens), P05230 (protein)
# chain: MAEGEITTFTALTEKFNLPPGNYKKPKLLYSNGGHFLRILPDGTVDGTRDRSDQHIQLQLSAESVGEVYIKSTETGQYLAMTDGLLYGSQTPNEECLFLERLEENHYNTYISKHAEKNWFVGLKKNGSCKRGPRTHYGQAILFLPLPASSED
# Key:
# Test in all cases: glycan array binding signal (z-score within array); higher = stronger binding
# Settings in all cases: glycan notation: IUPAC condensed, linker removed
# [1] = molecular target: Gal(b1-4)GlcNAc(b1-3)Gal(b1-4)GlcNAc(b1-3)Gal(b1-4)GlcNAc(b1-3)Gal(b1-4)GlcNAc(b1-2)Man(a1-3)[Gal(b1-4)GlcNAc(b1-3)Gal(b1-4)GlcNAc(b1-3)Gal(b1-4)GlcNAc(b1-3)Gal(b1-4)GlcNAc(b1-2)Man(a1-6)]Man(b1-4)GlcNAc(b1-4)GlcNAc
# In short: (§1)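 Arrays were curated from the Consortium for Functional Glycomics database, 3228 in total, and kept only where the protein sequence was available. Binding is expressed as a within-array Z-score. This score was averaged across arrays of the same protein sequence at different concentrations or buffers and across linkers, and negative values can be read as non-binding.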
# [2] = molecular target: Gal(b1-4)GlcNAc(b1-3)Gal(b1-4)GlcNAc(b1-3)Gal(b1-4)GlcNAc(b1-3)Gal(b1-4)GlcNAc(b1-2)Man(a1-3)[Gal(b1-4)GlcNAc(b1-3)Gal(b1-4)GlcNAc(b1-3)Gal(b1-4)GlcNAc(b1-3)Gal(b1-4)GlcNAc(b1-2)Man(a1-6)]Man(b1-4)GlcNAc(b1-4)[Fuc(a1-6)]GlcNAc
# In short: as §1
# [3] = molecular target: Gal(b1-4)GlcNAc(b1-3)Gal(b1-4)GlcNAc(b1-3)Gal(b1-4)GlcNAc(b1-3)Gal(b1-4)GlcNAc(b1-2)[Gal(b1-4)GlcNAc(b1-3)Gal(b1-4)GlcNAc(b1-3)Gal(b1-4)GlcNAc(b1-3)Gal(b1-4)GlcNAc(b1-6)]Man(a1-6)[Gal(b1-4)GlcNAc(b1-3)Gal(b1-4)GlcNAc(b1-3)Gal(b1-4)GlcNAc(b1-3)Gal(b1-4)GlcNAc(b1-2)Man(a1-3)]Man(b1-4)GlcNAc(b1-4)[Fuc(a1-6)]GlcNAc
# In short: as §1
# [4] = molecular target: Gal(b1-4)GlcNAc(b1-3)Gal(b1-4)GlcNAc(b1-3)Gal(b1-4)GlcNAc(b1-3)Gal(b1-4)GlcNAc(b1-3)Gal(b1-4)GlcNAc(b1-2)Man(a1-3)[Gal(b1-4)GlcNAc(b1-3)Gal(b1-4)GlcNAc(b1-3)Gal(b1-4)GlcNAc(b1-3)Gal(b1-4)GlcNAc(b1-3)Gal(b1-4)GlcNAc(b1-2)Man(a1-6)]Man(b1-4)GlcNAc(b1-4)GlcNAc
# In short: as §1
# [5] = molecular target: Gal(b1-4)GlcNAc(b1-3)Gal(b1-4)GlcNAc(b1-3)Gal(b1-4)GlcNAc(b1-3)Gal(b1-4)GlcNAc(b1-3)Gal(b1-4)GlcNAc(b1-2)Man(a1-3)[Gal(b1-4)GlcNAc(b1-3)Gal(b1-4)GlcNAc(b1-3)Gal(b1-4)GlcNAc(b1-3)Gal(b1-4)GlcNAc(b1-3)Gal(b1-4)GlcNAc(b1-2)Man(a1-6)]Man(b1-4)GlcNAc(b1-4)[Fuc(a1-6)]GlcNAc
# In short: as §1
# [6] = molecular target: Gal(b1-4)GlcNAc(b1-3)Gal(b1-4)GlcNAc(b1-3)Gal(b1-4)GlcNAc(b1-3)Gal(b1-4)GlcNAc(b1-3)Gal(b1-4)GlcNAc(b1-2)[Gal(b1-4)GlcNAc(b1-3)Gal(b1-4)GlcNAc(b1-3)Gal(b1-4)GlcNAc(b1-3)Gal(b1-4)GlcNAc(b1-3)Gal(b1-4)GlcNAc(b1-6)]Man(a1-6)[Gal(b1-4)GlcNAc(b1-3)Gal(b1-4)GlcNAc(b1-3)Gal(b1-4)GlcNAc(b1-3)Gal(b1-4)GlcNAc(b1-3)Gal(b1-4)GlcNAc(b1-2)Man(a1-3)]Man(b1-4)GlcNAc(b1-4)[Fuc(a1-6)]GlcNAc
# In short: as §1
# [7] = molecular target: Gal(b1-4)GlcNAc(b1-3)Gal(b1-4)GlcNAc(b1-3)Gal(b1-4)GlcNAc(b1-3)Gal(b1-4)GlcNAc(b1-3)Gal(b1-4)GlcNAc(b1-3)Gal(b1-4)GlcNAc(b1-2)Man(a1-3)[Gal(b1-4)GlcNAc(b1-3)Gal(b1-4)GlcNAc(b1-3)Gal(b1-4)GlcNAc(b1-3)Gal(b1-4)GlcNAc(b1-3)Gal(b1-4)GlcNAc(b1-3)Gal(b1-4)GlcNAc(b1-2)Man(a1-6)]Man(b1-4)GlcNAc(b1-4)GlcNAc
# In short: as §1
# [8] = molecular target: Gal(b1-4)GlcNAc(b1-3)Gal(b1-4)GlcNAc(b1-3)GalNAc
# In short: as §1
# [9] = molecular target: Gal(b1-4)GlcNAc(b1-3)Gal(b1-4)GlcNAc(b1-3)[Gal(b1-4)GlcNAc(b1-3)Gal(b1-4)GlcNAc(b1-6)]GalNAc
# In short: as §1
# [10] = molecular target: Gal(b1-4)GlcNAc(b1-3)Gal(b1-4)GlcNAc(b1-6)[Gal(b1-3)]GalNAc
# In short: as §1
# [11] = molecular target: Gal(b1-4)GlcNAc(b1-3)Gal(b1-4)[Fuc(a1-3)]GlcNAc(b1-3)Gal(b1-4)[Fuc(a1-3)]GlcNAc
# In short: as §1
# [12] = molecular target: Gal(b1-4)GlcNAc(b1-3)GalNAc
# In short: as §1
# [13] = molecular target: Gal(b1-4)GlcNAc(b1-3)[Fuc(a1-3)GlcNAc(b1-6)]Gal(b1-4)Glc
# In short: as §1
# [14] = molecular target: Gal(b1-4)GlcNAc(b1-3)[Gal(b1-4)GlcNAc(b1-6)]Gal(b1-4)GlcNAc
# In short: as §1
# [15] = molecular target: Gal(b1-4)GlcNAc(b1-3)[GlcNAc(b1-6)]Gal(b1-4)GlcNAc
# In short: as §1
# [16] = molecular target: Gal(b1-4)GlcNAc(b1-6)Gal(b1-4)GlcNAc
# In short: as §1
# [17] = molecular target: Gal(b1-4)GlcNAc(b1-6)GalNAc
# In short: as §1
# [18] = molecular target: Gal(b1-4)GlcNAc(b1-6)[Gal(b1-3)]GalNAc
# In short: as §1
# [19] = molecular target: Gal(b1-4)GlcNAc(b1-6)[Gal(b1-4)GlcNAc(b1-3)]GalNAc
# In short: as §1
# Gal(b1-4)GlcNAc6P = molecular target: Gal(b1-4)GlcNAc6P
# In short: as §1
# Gal(b1-6)Gal = molecular target: Gal(b1-6)Gal
# In short: as §1
# Gal3S(b1-3)GalNAc = molecular target: Gal3S(b1-3)GalNAc
# In short: as §1
# Gal3S(b1-3)GlcNAc = molecular target: Gal3S(b1-3)GlcNAc
# In short: as §1
binder,measurement,setting,value
B1,glycan array binding signal (z-score),[1],-0.604
same,glycan array binding signal (z-score),[2],1.05
same,glycan array binding signal (z-score),[3],0.166
same,glycan array binding signal (z-score),[4],0.491
same,glycan array binding signal (z-score),[5],-0.647
same,glycan array binding signal (z-score),[6],-0.541
same,glycan array binding signal (z-score),[7],-0.34
same,glycan array binding signal (z-score),[8],1.62
same,glycan array binding signal (z-score),[9],1.64
same,glycan array binding signal (z-score),[10],0.693
same,glycan array binding signal (z-score),[11],-0.238
same,glycan array binding signal (z-score),[12],-0.873
same,glycan array binding signal (z-score),[13],-0.581
same,glycan array binding signal (z-score),[14],-0.917
same,glycan array binding signal (z-score),[15],0.09
same,glycan array binding signal (z-score),[16],-1.19
same,glycan array binding signal (z-score),[17],0.099
same,glycan array binding signal (z-score),[18],-0.192
same,glycan array binding signal (z-score),[19],1.81
same,glycan array binding signal (z-score),Gal(b1-4)GlcNAc6P,-1.05
same,glycan array binding signal (z-score),Gal(b1-6)Gal,0.671
same,glycan array binding signal (z-score),Gal3S(b1-3)GalNAc,0.468
same,glycan array binding signal (z-score),Gal3S(b1-3)GlcNAc,1.54

# Quoted at random: 2 records from the list.
binder,measurement,setting,value
B1,glycan array binding signal (z-score),[7],-0.34
same,glycan array binding signal (z-score),[4],0.491
